The values that follow come from paper PMC8560763, “Roles of metal ions in the selective inhibition of oncogenic variants of isocitrate dehydrogenase 1” (Communications Biology, 2021).

The chains behind the UniProt entries cited, without tags or fusion partners. Residues count along the entry.
UniProt O75874, 2-414: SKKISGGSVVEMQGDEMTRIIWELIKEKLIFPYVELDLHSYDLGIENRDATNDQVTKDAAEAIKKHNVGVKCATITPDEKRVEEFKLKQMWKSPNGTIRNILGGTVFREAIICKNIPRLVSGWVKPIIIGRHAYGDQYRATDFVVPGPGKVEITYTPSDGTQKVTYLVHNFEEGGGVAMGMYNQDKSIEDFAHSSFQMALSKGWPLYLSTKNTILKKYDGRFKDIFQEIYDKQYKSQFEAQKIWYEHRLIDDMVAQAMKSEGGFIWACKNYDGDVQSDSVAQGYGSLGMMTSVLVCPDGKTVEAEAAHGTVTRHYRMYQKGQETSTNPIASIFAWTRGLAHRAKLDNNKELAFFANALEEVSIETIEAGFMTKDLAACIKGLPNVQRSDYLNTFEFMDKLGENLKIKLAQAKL

“And” between values parts separate entries of the source, which are not always exact repeats. Equal entries are not always repeated. The source gives many values for each of these; only a part stands here.

The test deals with T1, wt IDH1 (Homo sapiens, UniProt O75874).
T1 construct: made in house; host or cells: Escherichia coli BL21(DE3) pLyS
Briefly: Absorbance assay (NADPH, 340 nm): kinetics of oxidative reaction (isocitrate to 2OG) by wt IDH1. It counts as biochemical. The procedure:
All experiments were performed in (at least) triplicate.
KM values were determined by varying concentrations of the substrate/cofactor under investigation while maintaining the concentrations of other components using standard conditions. […] Graphs were fitted using GraphPad Prism to obtain kinetic parameters.

Regarding `NC(=O)c1ccc[n+](C2OC(COP(=O)(O)OP(=O)([O-])OCC3OC(n4cnc5c(N)ncnc54)C(OP(=O)(O)O)C3O)C(O)C2O)c1` (centres unmarked) [NADP^+], the Velocity is 0.03088 µM/s and 0.02351 µM/s and 0.02544 µM/s (Fig. S2b, [NADP+] 4.6875 μM); 0.3195 µM/s and 0.3577 µM/s (Fig. S3b, MnCl2 as metal, [NADP+] 300 μM); 0.3169 µM/s and 0.3403 µM/s and 0.3214 µM/s (Fig. S3b, MnCl2 as metal, [NADP+] 600 μM); 0.3459 µM/s and 0.3409 µM/s and 0.3451 µM/s (Fig. S3b, MnCl2 as metal, [NADP+] 1200 μM); 0.3432 µM/s and 0.3124 µM/s and 0.328 µM/s (Fig. S3b, MnCl2 as metal, [NADP+] 2400 μM).
